PubChem BioAssay AID1259254 | NCATS, 2017
Assay: 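Finding genes that stop cells copying their DNA twice in one cycle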 (primary screen). System: human HCT116 colorectal cancer cells. Reagent: single siRNA against human genes. Duration: 3 days. Detection: 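Imaged Hoechst DNA stain sorts each cell into a cycle phase by DNA amount; per plate, G2 fraction set to 0% for non-targeting and 100% for GMNN siRNA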. Direction: G2 robust z-score: higher = more G2 cells, more excess DNA replication. Active means: 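An siRNA counts as active if its G2 robust z-score lies at least 5 MADs above the screen median; here such calls match roughly 38% of GMNN control or more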.
The whole screen tested about 59,000 reagents; this is a random part of them. About 1,550 of all reagents (2.6%) were called active. 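G2 share is only a proxy for re-replication; each gene was hit by three separate siRNAs, and active genes were retested.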 Unmarked entries are inactive. Reagents against one gene are numbered here. Not all columns of the deposit are shown. Not given: the amount of reagent.

CSN2 #1
- G2 robust z-score: 2.85

CSN2 #2
- G2 robust z-score: 2.09

CSN2 #3
- G2 robust z-score: 1.24

HEATR6 #1
- G2 robust z-score: -0.197

HEATR6 #2
- G2 robust z-score: -0.734

HEATR6 #3
- G2 robust z-score: -0.328

ZFYVE19 #1
- G2 robust z-score: -0.591

ZFYVE19 #2
- G2 robust z-score: 0.12

ZFYVE19 #3
- G2 robust z-score: -0.126

ARMC8 #1
- G2 robust z-score: 1.22

ARMC8 #2
- G2 robust z-score: 2.54

ARMC8 #3
- G2 robust z-score: 1.16

CACNA2D2 #1
- G2 robust z-score: 0.724

CACNA2D2 #2
- G2 robust z-score: 0.0308

CACNA2D2 #3
- G2 robust z-score: -0.99

ITPRIPL2 #1
- G2 robust z-score: 5.58 (active)

ITPRIPL2 #2
- G2 robust z-score: 1.49

ITPRIPL2 #3
- G2 robust z-score: 0.0654

MTMR10 #1
- G2 robust z-score: -0.83

MTMR10 #2
- G2 robust z-score: 0.702

MTMR10 #3
- G2 robust z-score: 1.26

DUX4L16 #1
- G2 robust z-score: 0.369

DUX4L16 #2
- G2 robust z-score: -0.334

DUX4L16 #3
- G2 robust z-score: 0.664

TEX9 #1
- G2 robust z-score: -0.428

TEX9 #2
- G2 robust z-score: 0.583

TEX9 #3
- G2 robust z-score: -0.709

ZNF815P #1
- G2 robust z-score: -0.807

ZNF815P #2
- G2 robust z-score: 0.279

ZNF815P #3
- G2 robust z-score: -1.07

Records above whose target name begins with I or i (3):
ITPRIPL2 #1
- G2 robust z-score: 5.58 (active)

ITPRIPL2 #2
- G2 robust z-score: 1.49

ITPRIPL2 #3
- G2 robust z-score: 0.0654
